Results on two substances are retold here after paper doi:10.1101/2025.05.07.652675.

Sequences of proteins named here, by UniProt entry; tags and fusion partners are left off. Residues count along the entry.
UniProt P0A9A6, 316-370: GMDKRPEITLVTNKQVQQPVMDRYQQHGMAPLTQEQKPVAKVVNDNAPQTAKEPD
UniProt P0A9A6, 316-383: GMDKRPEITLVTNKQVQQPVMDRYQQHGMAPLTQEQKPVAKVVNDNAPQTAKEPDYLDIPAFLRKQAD
UniProt P75862, whole entry: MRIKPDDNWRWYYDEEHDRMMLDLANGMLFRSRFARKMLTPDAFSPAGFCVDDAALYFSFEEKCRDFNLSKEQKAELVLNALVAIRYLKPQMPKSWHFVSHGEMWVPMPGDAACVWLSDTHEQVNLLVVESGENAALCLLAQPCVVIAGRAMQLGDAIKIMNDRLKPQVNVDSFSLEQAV

No constants are given. Whether binding was seen depends on the method and setting. Some results given as binding are weak or reduced against the parent protein; the word gives no strength.

The target in assay [1] is SUMO-FtsZ^316-370 (E. coli) (UniProt P0A9A6). In words: BLI.
In assay [2] the target is FtsZ^316-370 (bacterial two-hybrid fusion) (E. coli) (UniProt P0A9A6). In words: two-hybrid.
The target of assay [3] is FtsZ^316-383 (bacterial two-hybrid fusion) (E. coli) (UniProt P0A9A6). In words: two-hybrid.

With “ZapC (untagged) (from UniProt P75862 1-180)”, in assay [1], the binding entry is “no binding”.

On to “ZapC (bacterial two-hybrid fusion) (from UniProt P75862 1-180)”, for which the binding entry was “no binding” in assay [2] and “binds” in assay [3].
